The other results are listed elsewhere or left out. Shown are side measurements of this screen, not its main read-out; they come without a call. Compounds called inactive in the main read-out are mostly missing here. Potencies come from curve fits of mixed quality, noted in brackets.
Assay: qHTS Assay to Find Inhibitors of Chronic Active B-Cell Receptor Signaling
Conditions: ABC-DLBCL IkBa-CBG/CBR reporter, luminescence ratio (green luciferase fused to IkBa over red control in TMD8 lymphoma cells), 4 h
How it was run: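 Cell line TMD8 (human ABC DLBCL), stably expressing tet-inducible CBG68-IkBa fusion and CBR; IMDM/0.5% FBS; cpd up to 46 uM; dox induction, 4 h, 37C/5% CO2; dual luminescence; green/red ratio; MG132 control.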

[1] = measured here: CBR red luminescence, cell number

SMILES	AC50 [1]	AC50 (measured here: IkBa-CBG green luminescence)
Cc1cccc(NS(=O)(=O)c2cc3c4c(c2)CCC(=O)N4CCC3)c1	32.6 µM [falling, single point]	–
Cc1ccc(-c2nn(-c3ccccc3)cc2/C=C/C(=O)Nc2cccc(S(N)(=O)=O)c2)cc1	12.6 µM [falling, single point]	–
Cc1ccc(N(C)C(=O)N2CCN(c3ccccn3)CC2)cc1	2.06 µM [rising, partial curve, poor fit]	–
CC1CCN(CCc2nc3cc(NC(=O)COc4ccc([N+](=O)[O-])cc4)ccc3n2C)CC1	0.447 µM [falling, full curve, poor fit]	–
COc1cc(/C=N/NC(=O)c2cncc(Br)c2)cc([N+](=O)[O-])c1O	12.6 µM [falling, single point]	–
C=CCNC(=O)CSc1nnc(-c2ccccn2)n1Cc1ccccc1	0.501 µM [rising, full curve, poor fit]	–
COc1ccc2oc(=O)c(C(=O)NCc3ccc4c(c3)OCO4)cc2c1	5.8 µM [rising, full curve, poor fit]	–
Cc1cccc(OCC(=O)N2CCC(c3ccccc3)C2)c1 (centres undefined)	1.64 µM [rising, full curve, poor fit]	–
COc1ccc2nc(N3C(=O)CC(Cc4ccc(C)cc4)C3=O)sc2c1 (centres undefined)	0.0013 µM [rising, full curve, poor fit]	–
C/C(=C1/SC(=S)N(CCC(=O)O)C1=O)c1ccc(O)cc1	0.0291 µM [falling, full curve, poor fit]	–
C/C(=N\NC(=O)CSCc1ccccc1Cl)c1cccc(NC(=O)c2ccccc2)c1	29.1 µM [rising, single point]	–
COc1ccc(-c2nnn(-c3ccc(Cl)cc3Cl)c2N)cc1	3.16 µM [rising, partial curve, poor fit]	–
COc1ccc2oc(C(=O)OCC(=O)N(C)CC(=O)Nc3ccc(C)cc3)c(C)c2c1	16.4 µM [rising, partial curve]	–
Fc1ccc2nc(Nc3nc4c(F)cc(F)cc4s3)sc2c1	5.17 µM [falling, single point]	–
C/C(=N\NC(=O)CC#N)c1cc2ccc(O)cc2oc1=O	15.8 µM [falling, single point]	–
O=C(Nc1ccn(-c2ccccc2)n1)c1ccccc1Br	5.17 µM [falling, partial curve]	–
Cc1c(CC(=O)N[C@@H](C)C(=O)O)c(=O)oc2cc3occ(-c4ccccc4)c3cc12	3.98 µM [rising, full curve, poor fit]	–
Cc1cccc(NC(=O)Nc2ccc3c(c2)OCO3)n1	22.4 µM [falling, single point]	–
CCN(CC)CCN1C(=O)C(=O)/C(=C(/O)c2ccc(OC)cc2)C1c1ccco1 (centres undefined)	12.6 µM [rising, partial curve]	–
COc1ccc(-c2[nH]ncc2/C=N/NC(=O)c2cc(Br)ccc2O)c(OC)c1	2.06 µM [falling, full curve]	–
Cc1cc(OCC(=O)O/N=C(\N)c2ccccc2)cc(C)c1Cl	2.51 µM [rising, partial curve]	–

Arranged by molar mass (descending): some entries from above
SMILES	AC50 [1]	AC50 (measured here: IkBa-CBG green luminescence)
O=C(Nc1ccn(-c2ccccc2)n1)c1ccccc1Br	5.17 µM [falling, partial curve]	–
Fc1ccc2nc(Nc3nc4c(F)cc(F)cc4s3)sc2c1	5.17 µM [falling, single point]	–
Cc1ccc(N(C)C(=O)N2CCN(c3ccccn3)CC2)cc1	2.06 µM [rising, partial curve, poor fit]	–

Continued:

SMILES	AC50 [1]	AC50 (measured here: IkBa-CBG green luminescence)
COc1cc(C#Cc2c(-c3ccccc3OC)oc3ccccc23)cc(OC)c1	18.4 µM [rising, single point]	–
C[C@@H]1CN([C@H](C)CO)C(=O)c2cccc(NC(=O)NC3CCCCC3)c2O[C@@H]1CN(C)C(=O)Nc1ccc(C(F)(F)F)cc1	23.1 µM [falling, partial curve, poor fit]	–
COc1cc(/C=C/C(=O)c2ccc(NS(=O)(=O)c3ccc(C)cc3)cc2)ccc1OC(F)F	29.1 µM [falling, single point]	–
O=C(CCCN1C(=O)/C(=C\c2cccs2)SC1=S)Nc1ccc(C(=O)O)cc1	17.8 µM [falling, partial curve, poor fit]	–
O=C(CSc1nc2c([nH]c3ccccc32)c(=O)n1-c1ccccc1F)NCC1CCCO1 (centres undefined)	35.5 µM [falling, single point]	–
NC(=O)C1CCN(C(=S)c2ccc(-c3ccc(Br)cc3)o2)CC1	2.51 µM [rising, full curve]	–
Cc1nnc(-c2ccccc2)c(=O)n1/N=C/c1c(O)ccc2ccccc12	3.55 µM [falling, partial curve, poor fit]	–
CCOC(=O)Cn1c(CN(Cc2ccccc2)Cc2ccccc2)nc2c1c(=O)[nH]c(=O)n2C	35.5 µM [falling, single point]	–
N#Cc1nc(-c2ccccc2Cl)oc1N1CCCCC1	25.1 µM [rising, single point]	–
COc1cccc(C2=CC(c3ccc(N(C)C)cc3)n3ncnc3N2)c1 (centres undefined)	11.2 µM [falling, partial curve]	–
Cc1nn(Cc2ccc(Cl)cc2)c(C)c1NC(=O)C(c1ccccc1)c1ccccc1	7.31 µM [falling, partial curve]	–
CCOC(=O)c1ccc(N2C(=O)c3n[nH]c(C)c3C2c2ccco2)cc1 (centres undefined)	17.8 µM [falling, single point]	–
CC[C@]12c3[nH]c4ccc(Cl)cc4c3CCN1C(=O)[C@@H](CC(=O)NCC13CC4CC(CC(C4)C1)C3)C[C@@H]2C(=O)N1CCN(C(=O)c2ccco2)CC1	2.91 µM [falling, full curve]	4.61 µM [rising, full curve, poor fit]
CCOc1ccc(NC(=O)CN(C)C(=O)CN2C(=O)C3CCCCC3C2=O)cc1OCC (centres undefined)	0.731 µM [rising, full curve]	–
O=C(COC(=O)CCNS(=O)(=O)c1cccs1)Nc1cc(C(F)(F)F)ccc1Cl	23.1 µM [rising, partial curve, poor fit]	–
COc1ccc(C(=O)NC(C)c2nnc(SCC(=O)Nc3nc4ccccc4s3)n2C)cc1 (centres undefined)	15.8 µM [falling, single point]	–
O=C(CSc1ccccc1)N1CCCC(N2CCN(c3ccccc3)CC2)C1 (centres undefined)	35.5 µM [falling, single point]	–
CCNC(=O)COC(=O)/C=C/c1ccccc1[N+](=O)[O-]	16.4 µM [falling, single point]	–
COc1ccc(-n2nnnc2SCC(=O)N(C)C2CCS(=O)(=O)C2)cc1 (centres undefined)	1.03 µM [rising, full curve, poor fit]	–
CC(=O)Nc1ccc(OCCC[n+]2ccccc2)cc1	10 µM [rising, partial curve, poor fit]	–
O=C(NNc1cc(Cl)ccc1Cl)C1CCC1	3.98 µM [rising, full curve, poor fit]	–

Compounds listed so far with a cyano group, in the order listed:
SMILES	AC50 [1]	AC50 (measured here: IkBa-CBG green luminescence)
C/C(=N\NC(=O)CC#N)c1cc2ccc(O)cc2oc1=O	15.8 µM [falling, single point]	–
N#Cc1nc(-c2ccccc2Cl)oc1N1CCCCC1	25.1 µM [rising, single point]	–

Further compounds follow:

SMILES	AC50 [1]	AC50 (measured here: IkBa-CBG green luminescence)
O=C(O)c1ccc(Nc2nc(-c3cccnc3)cs2)cc1O	7.08 µM [falling, partial curve]	–
O=C(NC1CCCC1)c1cc(-c2cccc(Cl)c2)on1	12.6 µM [falling, partial curve]	–
CC(=O)c1ccc(N2CCN(S(=O)(=O)c3cccc4nsnc34)CC2)cc1	35.5 µM [rising, single point]	–
COc1ccc(OC)c(Cc2nnc(CCC(=O)NC3C4CC5CC(C4)CC3C5)o2)c1 (centres undefined)	3.55 µM [falling, partial curve, poor fit]	–
Nc1c(-c2ccccc2)n[nH]c1-c1ccccc1	4.61 µM [falling, full curve]	–
CN1N=C(C(=O)N2CCc3c([nH]c4ccccc34)C2c2ccccc2Cl)CCC1=O (centres undefined)	0.178 µM [falling, full curve, poor fit]	–
O=C(N/N=C/c1c[nH]c2ccccc12)c1ccccc1O	5.62 µM [falling, partial curve, poor fit]	–
Cc1cccn2cc(CCNC(=O)c3cccs3)nc12	12.6 µM [falling, partial curve]	–
Cc1cc(C)c2c(N)c(C(=O)c3ccc(Cl)cc3)sc2n1	0.0651 µM [rising, full curve]	–
O=C(c1cc(-c2cccc3ccccc23)nc2ccccc12)N1CCN(CCO)CC1	0.259 µM [rising, partial curve, poor fit]	–
CCCOC(=O)C1=C(C)N(C)C(=O)NC1c1cc2c(cc1Br)OCO2 (centres undefined)	20 µM [falling, single point]	–
N#CC1=C(SCC(=O)c2ccc(Cl)cc2)NC2=C(C(=O)CCC2)C1c1ccco1 (centres undefined)	22.4 µM [falling, single point]	–
O=c1nccc(SCc2ccc(Cl)cc2Cl)[nH]1	5.62 µM [falling, single point]	–
CCC1CCCCN1C(=O)CCc1nnc(Cc2cc(OC)ccc2OC)o1 (centres undefined)	7.08 µM [rising, full curve, poor fit]	–
CCOC(=O)c1cccc(N/C=C/C(=O)c2ccc(OC)c(OC)c2)c1	35.5 µM [falling, single point]	–
CC(C)Sc1nc2ccccc2n1CC(=O)O	7.94 µM [rising, partial curve, poor fit]	–
CC(=O)Nc1nc2c(C)cc(NC(=O)C3CCCCC3)cc2s1	3.98 µM [rising, full curve, poor fit]	–
CSc1nc(C)cc(OCC(=O)n2nc(C)cc2C)n1	35.5 µM [rising, single point]	–
O=C(NNc1ccccn1)c1ccccc1CC[N+](=O)[O-]	14.1 µM [rising, partial curve, poor fit]	–
Cc1c(C(=O)c2ccc(Cl)c([N+](=O)[O-])c2)c2ccccn2c1CCC#N	20.6 µM [falling, single point]	–
CCC(C)NC(=O)c1cn(CC)c2cc(N3CCN(C(=O)c4ccco4)CC3)c(F)cc2c1=O (centres undefined)	7.08 µM [falling, partial curve, poor fit]	–

— PubChem BioAssay AID493014 (National Center for Advancing Translational Sciences (NCATS), 2011)
